Data: the supplement of paper PMC7024190
Counter-ions that a name gives are not always drawn. The list shows a part of the results. Repeats in this data set agree poorly, so a single value says little.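 The cells were human embryonic kidney cells carrying a Renilla luciferase gene, driven by the HSV-TK promoter, on a plasmid put in briefly by transfection. This is the first-round screen of about ten thousand compounds, looking for ones that raise reporter output.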

Each compound was assayed on HEK 293FT (assay: log relative Renilla luciferase luminescence (reporter expression vs reference, reference not stated) (log (base not stated)); higher = higher recombinant reporter expression). Details: 10 µM; time after transfection 48 h.

Compound	log
COc1cc([C@@H]2c3cc4c(cc3[C@@H](O[C@@H]3O[C@@H]5CO[C@@H](c6cccs6)O[C@H]5[C@H](O)[C@H]3O)[C@H]3COC(=O)[C@H]23)OCO4)cc(OC)c1O [teniposide]	-1.16
O=c1ccc2ccccc2o1 [coumarin]	-0.0673
NCCOB(c1ccccc1)c1ccccc1 [aminoethoxydiphenylborane]	0.118
CC1(C)C=Cc2cc3ccc(=O)oc3cc2O1 [xanthyletin]	0.0394
CN(C)CCCN1c2ccccc2Sc2ccc(Cl)cc21 [chlorpromazine]	-0.107
CCOC(=O)c1c(C)cc(O)cc1O [orsellinic acid, ethyl ester]	-0.151
COc1cc(O)c2c(=O)cc(-c3ccc(O)cc3)oc2c1 [genkwanin]	0.116
O=c1ccn([C@@H]2O[C@H](COP(=O)(O)OP(=O)(O)OP(=O)(O)O)[C@@H](O)[C@H]2O)c(=O)[nH]1 [uridine triphosphate trisodium]	-0.0595
Cc1nc(-c2ccc(OCC(C)C)c(C#N)c2)sc1C(=O)O [febuxostat]	0.117
CN(C)c1ccc(C(=C2C=CC(=[N+](C)C)C=C2)c2ccc(N(C)C)cc2)cc1 [gentian violet]	-0.675
COc1ccc(CC2c3cc(OC)c(OC)cc3CC[N+]2(C)CCC(=O)OCCCCCOC(=O)CC[N+]2(C)CCc3cc(OC)c(OC)cc3C2Cc2ccc(OC)c(OC)c2)cc1OC (stereo not given) [atracurium besylate]	0.11
CC(=O)[C@H]1CC[C@H]2[C@@H]3CC=C4C[C@@H](O)CC[C@]4(C)[C@H]3CC[C@]12C [pregnenolone]	0.13
Cc1nc(Nc2ncc(C(=O)Nc3c(C)cccc3Cl)s2)cc(N2CCN(CCO)CC2)n1 [dasatinib]	-0.343
CCN(CCO)CCCC(C)Nc1ccnc2cc(Cl)ccc12 (stereo not given) [hydroxychloroquine sulfate]	0.0999
CON [methoxyamine hydrochloride]	-0.134
CC1(C)[C@@H](O)CC[C@]2(C)[C@H]3C(=O)C=C4[C@H]5C[C@@](C)(C(=O)O)CC[C@]5(C)CC[C@@]4(C)[C@]3(C)CC[C@@H]12 [18alpha-glycyrrhetinic acid]	0.0732
CO/N=C1\C[C@]2(C[C@@H]3C[C@@H](C/C=C(\C)C[C@@H](C)/C=C/C=C4\CO[C@@H]5[C@H](O)C(C)=C[C@@H](C(=O)O3)[C@]45O)O2)O[C@H](/C(C)=C/C(C)C)[C@H]1C [moxidectin]	-0.097
CCCCN1CCCCC1C(=O)Nc1c(C)cccc1C (stereo not given) [bupivacaine hydrochloride]	0.172
CCOC(=O)NNc1nncc2ccccc12 [todralazine hydrochloride]	0.0613
CC(=O)c1c(O)cc(O)cc1O [phloracetophenone]	0.234
CC(=O)O[C@@H]1CC2C(C)(CC[C@H](O)C2(C)C)C2CC[C@]3(C)C(=CC(=O)O[C@H]3c3ccoc3)C21C (stereo partly drawn) [3beta-hydroxydeoxodihydrodeoxygedunin]	0.0943
O=c1c(-c2cc(O)c(O)c(O)c2)coc2cc(O)c(O)c(O)c12 [irigenol]	0.0913
CC12CCCC(O)(C1)C1CC(C)(C)C1CC2 (stereo not drawn) [beta-caryophyllene alcohol]	0.102
CC(C)(C)c1ccc(C(O)CCCN2CCC(C(O)(c3ccccc3)c3ccccc3)CC2)cc1 (stereo not given) [terfenadine]	0.0676
CC(COc1ccccc1)NC(C)C(O)c1ccc(O)cc1 (stereo not given) [isoxsuprine hydrochloride]	0.0442

A second format for part of the listing above.
Compound | log
CN(C)CCCN1c2ccccc2Sc2ccc(Cl)cc21 [chlorpromazine] | -0.107
CCOC(=O)c1c(C)cc(O)cc1O [orsellinic acid, ethyl ester] | -0.151
COc1cc(O)c2c(=O)cc(-c3ccc(O)cc3)oc2c1 [genkwanin] | 0.116

Following part

Compound	log
Cc1cc(=O)oc2c(O)c(O)ccc12 [4-methyldaphnetin]	-0.252
C#C[C@]1(O)CC[C@H]2[C@@H]3CCC4=C(CCC(=O)C4)[C@H]3CC[C@@]21C [norethynodrel]	-0.246
COc1cc(OC)c(-c2c(OC)cc(OC)cc2OC)c(OC)c1 [difucol hexamethyl ether]	0.201
CC(C)(C)NCC(O)c1cc(O)cc(O)c1 (stereo not given) [terbutaline hemisulfate]	-0.029
COc1ccc2c(c1)O[C@@H]1COc3cc(OC)c(OC)cc3[C@@H]1C2=O [mundoserone]	-0.798
CCOC(=O)[N-]c1c[n+](N2CCOCC2)no1 [molsidomine]	-0.0943
CC[N+](CC)(CC)CCOc1cccc(OCC[N+](CC)(CC)CC)c1OCC[N+](CC)(CC)CC [gallamine triethiodide]	-0.0304
CN[C@@H]1[C@H](O[C@H]2[C@H](O[C@H]3[C@H](O)[C@@H](O)[C@H](NC(=N)N)[C@@H](O)[C@@H]3NC(=N)N)O[C@@H](C)[C@]2(O)CO)O[C@@H](CO)[C@H](O)[C@H]1O [dihydrostreptomycin sulfate]	-0.076
NCc1ccc(S(N)(=O)=O)cc1 [mafenide hydrochloride]	-0.269
COc1cc2oc3cc(OC)c(OC)c(CC=C(C)C)c3c(=O)c2c(OC)c1CC=C(C)C [mangostin trimethyl ether]	0.345
CCc1oc2ccccc2c1C(=O)c1cc(Br)c(O)c(Br)c1 [benzbromarone]	-0.101
CC/C(=C(\c1ccccc1)c1ccc(OCCN(C)C)cc1)c1ccccc1 [tamoxifen citrate]	0.102
CC(=O)Nc1ccc(C(=O)O)cc1 [acedoben]	-0.389
O=C(O)c1cccnc1C(=O)O [quinolinic acid]	-0.00978
O=C(O)c1ccccc1 [benzoic acid]	0.0182
CCOc1ccc(NC(C)=O)cc1 [phenacetin]	-0.337
CN1CCC[C@@H]1CCO[C@](C)(c1ccccc1)c1ccc(Cl)cc1 [clemastine fumarate]	-0.136
COc1cc2ncnc(Nc3ccc(F)c(Cl)c3)c2cc1OCCCN1CCOCC1 [gefitinib]	-0.0491
COc1ccc(C(=O)c2ccccc2O)c(O)c1 [dioxybenzone]	-0.0638
CC(C)(C)NC[C@H](O)COc1ccccc1C1CCCC1 [penbutolol sulfate]	-0.0658
Nc1nc2[nH]cc(CCc3ccc(C(=O)N[C@@H](CCC(=O)O)C(=O)O)cc3)c2c(=O)[nH]1 [pemetrexed]	0.00259
COCCc1ccc(OCC(O)CNC(C)C)cc1 (stereo not given) [metoprolol tartrate]	-0.0748
OCc1ccccn1 [piconol]	0.0746
COc1ccc(CN2CCN(C(c3ccc(F)cc3)c3ccc(F)cc3)CC2)c(OC)c1OC [lomerizine hydrochloride]	0.0766
COc1cc(OC)c2c(=O)c(-c3ccccc3)c(C)oc2c1OC [2-methyl-5,7,8-trimethoxyisoflavone]	-0.0277

An excerpt of these results, comma-delimited.
Compound,log
CC(C)(C)NC[C@H](O)COc1ccccc1C1CCCC1 [penbutolol sulfate],-0.0658
Nc1nc2[nH]cc(CCc3ccc(C(=O)N[C@@H](CCC(=O)O)C(=O)O)cc3)c2c(=O)[nH]1 [pemetrexed],0.00259
COCCc1ccc(OCC(O)CNC(C)C)cc1 (stereo not given) [metoprolol tartrate],-0.0748
OCc1ccccn1 [piconol],0.0746

Remaining list, next part.

Compound	log
CC(C)Cc1ccc(C(C)C(=O)O)cc1 (stereo not given) [ibuprofen]	0.129
COC1=CC(=O)C=C(OC)C1=O [2,6-dimethoxyquinone]	-1.57
Cc1cnc(C(=O)O)c[n+]1[O-] [acipimox]	0.0907
CC(=O)Nc1cccc(O)c1 [metacetamol]	-0.141
O=c1c(O)c(-c2ccc(O)c(O)c2)oc2cc(O)cc(O)c12 [quercetin]	0.0364
O=C(O)C1(C(=O)O)CCC1.[NH2-].[NH2-].[Pt+2] [carboplatin]	0.0455
CC1=C(C/C=C(\C)CCC[C@H](C)CCC[C@H](C)CCCC(C)C)C(=O)c2ccccc2C1=O [phytonadione]	-0.073
Cc1ncc(COP(=O)([O-])[O-])c(CN(CCN(CC(=O)O)Cc2c(COP(=O)([O-])O)cnc(C)c2O)CC(=O)O)c1O.[Mn].[Na+].[Na+].[Na+] [mangafodipir trisodium]	0.0773
CN1CCOC(c2ccccc2)c2ccccc2C1 (stereo not given) [nefopam]	-0.0467
N=C(N)NCCCCN [agmatine sulfate]	0.0271
CN1CCC(=C2c3ccccc3CCc3sccc32)CC1 [pizotyline malate]	0.0252
CCN(CC)CCOc1ccc(C(=C(Cl)c2ccccc2)c2ccccc2)cc1 [clomiphene citrate]	-0.0317
CC1(C)CC[C@]2(C(=O)O)CC[C@]3(C)C(=CCC4[C@@]5(C)CC[C@@H](O)C(C)(C)C5CC[C@]43C)C2C1 (stereo not given in full) [oleanoic acid]	0.18
CCCCNc1ccc(C(=O)OCCN(C)C)cc1 [tetracaine hydrochloride]	-0.00278
CCCCCOC(=O)Nc1nc(=O)n([C@@H]2O[C@H](C)[C@@H](O)[C@H]2O)cc1F [capecitabine]	-0.0557
CCC1NC(=O)c2cc(S(N)(=O)=O)c(Cl)cc2N1 (stereo not given) [quinethazone]	0.0799
CC(O)(P(=O)(O)O)P(=O)(O)O [etidronate disodium]	0.0813
Cc1cnc(C(=O)NCCc2ccc(S(=O)(=O)NC(=O)NC3CCCCC3)cc2)cn1 [glipizide]	0.148
O=C(O)COCCN1CCN([C@H](c2ccccc2)c2ccc(Cl)cc2)CC1 [levocetirizine dihydrochloride]	-0.165
CCc1ccc2c(O)c3c(cc2c1C(=O)OC)C(=O)c1c(O)ccc(O)c1C3=O [bisanhydrorutilantinone]	0.0715
O=S(=O)(O)c1cc(I)c(O)c2ncccc12 [chiniofon]	-0.129
CC(=O)O[C@H]1C[C@@H](OC(C)=O)C(C)(C)[C@@H]2C[C@@H](OC(C)=O)[C@@]3(C)C4=CC(=O)O[C@@H](c5ccoc5)[C@]4(C)CC[C@@H]3[C@@]12C [deoxykhivorin]	0.168
O=C1[C@H](CC[C@H](O)c2ccc(F)cc2)[C@@H](c2ccc(O)cc2)N1c1ccc(F)cc1 [ezetimibe]	-0.00699
COC(=O)C1=C(C)NC(C)=C(C(=O)OCCN(C)Cc2ccccc2)C1c1cccc([N+](=O)[O-])c1 (stereo not given) [nicardipine hydrochloride]	-0.0129
CC(C)=CCc1c2c(c3occ(-c4ccc(O)cc4)c(=O)c3c1O)C=CC(C)(C)O2 [osajin]	-0.282
